Experimental findings from article PMC12772312, “The MAB_3513c gene plays a key role in intrinsic resistance of Mycobacterium abscessus to isoniazid and ethionamide” (Microbiology Spectrum, 2025) are described below.

Results are given in words; binding and its absence hold for the method and conditions named. Sequences can lack the tags named with a protein.

This assay has as its target Mycobacterium abscessus NudC with the P226Q point mutation (Mycobacterium abscessus). The assay can be described thus: SEC; HiLoad 16/600 Superdex 75 pg, 20 mM Tris-HCl (pH 7.5), 150 mM NaCl, 1 mM 1,4-dithiothreitol, 4°C, 1 mL/min; retention times compared to molecular weight standards; both purified. On the technique in general: Size exclusion chromatography separates by hydrodynamic size, large species first.

B1: Mycobacterium abscessus NudC with the P226Q point mutation (enzyme, UniProt A0A0U1C370 1-310)
chain: MTFRLRNIPLLSRVGLDRADELRSNPEELAKGWAEAGLITLDVRGRVNIVDGQVVIEDAARIGDQPPEHAVFLGRIPGGRHVWAVRADLDEDSAPLLDLRRSGQLFDDTSAALLATAMAMLAWHDNAGYSPVDGSPTIPAKGGWVRVNSATGQEEFPRTDPAIICLVHDGGDRAVLGRQKFWPERMFSLLAGFVEAGESLEACVAREVAEEVGLTVTDVQYLGSQQWPFPRSIMLGFHAIGDPSQPFAFNDGEIAEADWFTRAEVRSALEAGDWTTASDSRLMLPGSISIAREIVESWAYAGEEPPAGRP
B1: the binding entry is given as “no binding”.
